This assay concerns the target ATG5 (experiment of Fig. S1C) (UniProt Q9H1Y0). Description: co-IP; Fig. S1C; upon mitochondrial depolarization; cells, constructs and precipitating antibody not stated in the text shown.

Sequences of proteins named here, by UniProt entry; tags and fusion partners are left off. A change or cut given only in a name is not applied to a line headed by its entry.
UniProt Q9H1Y0: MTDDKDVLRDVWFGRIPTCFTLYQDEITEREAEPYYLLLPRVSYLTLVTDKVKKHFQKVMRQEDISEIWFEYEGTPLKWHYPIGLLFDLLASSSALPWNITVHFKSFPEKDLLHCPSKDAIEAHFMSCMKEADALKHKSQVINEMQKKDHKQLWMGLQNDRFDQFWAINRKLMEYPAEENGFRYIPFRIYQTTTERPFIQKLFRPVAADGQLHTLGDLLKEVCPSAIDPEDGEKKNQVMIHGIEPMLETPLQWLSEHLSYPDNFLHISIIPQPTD
UniProt P28074: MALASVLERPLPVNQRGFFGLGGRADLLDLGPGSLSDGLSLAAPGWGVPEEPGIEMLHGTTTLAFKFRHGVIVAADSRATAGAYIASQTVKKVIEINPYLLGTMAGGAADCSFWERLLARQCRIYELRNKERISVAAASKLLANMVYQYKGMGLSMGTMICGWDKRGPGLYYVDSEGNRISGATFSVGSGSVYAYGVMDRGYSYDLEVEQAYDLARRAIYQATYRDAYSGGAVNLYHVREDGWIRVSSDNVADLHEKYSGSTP

The text below walks through data of paper PMC9649694.

These are yes or no findings as the source states them, for the method shown. Binding seen in cells or lysates may run through a third protein. A result given as binding can be weak or reduced; the word gives no strength.

For the substance “PSMB5 (experiment of Fig. S1C) (from UniProt P28074)”, the binding result is reported as “binds”.
